# Patent US20140094413A1, “HEPATOCYTE GROWTH FACTOR (HGF) MIMICS AS THERAPEUTIC AGENTS” (WASHINGTON STATE UNIVERSITY, priority 2012, published 2014)
# Entries after “also recorded” stand apart in the source; their conditions may differ. At least one read-out could not be matched to a standard name with certainty. Where a SMILES comes first, the peptide text is derived from it. [ ]: non-standard residue; d: D form. The star is where a group is joined. Hexanoyl = CCCCCC(=O)*; Ahx = NCCCCCC(=O)O
# Experiment: Brain distribution of 3H-Dihexa after carotid infusion
# Settings: rat, in vivo
# Procedure: FIG. 44. […] Rats fitted with a carotid cannula were anesthetized and infused with 0.5 ml of isotonic saline containing 10 μCi of 3H-Dihexa and 2 μCi ^14C-Inulin, a vascular marker. Thirty minutes after infusion rats were decapitated, the brains removed, and various brain regions dissected. The tissues were then weighed and solubilized with NCS and 10 ml of scintillation was added. Samples were counted with a scintillation counter using two different windows to quantitate both ^3H and ^14C counts. ^3H/^14Cs were determined so that blood derived Dihexa contamination of tissues could be determined. The average ^3H/^14C from blood was 1687.
smiles,measurement,value
"CCCCCC(=O)N[C@@H](Cc1ccc(O)cc1)C(=O)N[C@H](C(=O)NCCCCCC(N)=O)[C@@H](C)CC [Dihexa, N-hexanoic-Tyr-Ile-(6)-aminohexanoic amide] (Hexanoyl-Tyr-Ile-[Ahx]-NH2)",Blood brain barrier permeability,blood brain barrier permeable; also recorded: very BBB permeable
